Test [1] in a line: PubChem AID 1586. Conditions: yeast two-hybrid polyglutamine protein interaction, reporter readout; measured here: averaged growth delta OD.
Test [2] is described as follows: enhancers of SMN2 over SMN1 splicing, cell-based, SMN2/SMN1 luciferase reporters (AID 1598). Conditions: SMN2 vs SMN1 luciferase splicing reporter cells, at 10 µM; SMN1 luciferase ratio: measured here: SMN1 luciferase reporter average; SMN2 luciferase ratio: measured here: SMN2 luciferase reporter average, stronger effect = higher value. Background: In a reporter assay the amount or activity of a reporter protein is the signal.

Test [3] in a line: protection against mutant huntingtin cytotoxicity, PC12 cells, LDH release (AID 1610). As to conditions: PC12 mutant huntingtin toxicity, final LDH at 4 uM, stronger effect = lower value. For orientation: LDH leaks from cells whose membrane has failed.

Experimental findings from PubChem BioAssay are described below.

Structures are written as SMILES. This is one part of the list. Shown are side measurements of this screen, not its main read-out; they come without a call. For some assays here: Most of these compounds were active or inconclusive in the main read-out, so they are no random draw.

With `Cc1nnc(SCC2=C(C(=O)O)N3C(=O)[C@@H](NC(=O)Cn4cnnn4)[C@H]3SC2)s1`, the signal change (36 h minus 0 h) in test [1] turned out to be 0.182. In addition, in test [2], the SMN1 luciferase ratio amounted to 0.9 and the SMN2 luciferase ratio was found to be 0.93. In test [3], this compound returned a normalised LDH release of 0.738.
Regarding `Cc1cc(/C=C/c2ccc3cc(N(C)C)ccc3[n+]2C)c(C)n1-c1ccccc1`, the signal change (36 h minus 0 h) in test [1] turned out to be 0.034. Moreover, in test [2], the SMN1 luciferase ratio came to 0.24 and the SMN2 luciferase ratio is 0.28. In test [3], this compound showed a normalised LDH release of 0.146.
In turn, `CN(C)CCOC(=O)COc1ccc(Cl)cc1` showed a signal change (36 h minus 0 h) in test [1] of 0.174. In test [2], the SMN1 luciferase ratio amounted to 0.92 and the SMN2 luciferase ratio was 0.89. Also, the normalised LDH release in test [3] stood at 0.605.
`C[n+]1c2cc(N)ccc2cc2ccc(N)cc21` returned a signal change (36 h minus 0 h) in test [1] of 0.0698. For the same compound, in test [2], the SMN1 luciferase ratio came out at 0.29 and the SMN2 luciferase ratio amounted to 0.33. This compound also came in with a normalised LDH release in test [3] of 0.67.
Consider `CN1CCC(=C2c3ccccc3CC(=O)c3sccc32)CC1`, for which the signal change (36 h minus 0 h) in test [1] came out at 0.0963. Further, in test [2], the SMN1 luciferase ratio was 0.83 and the SMN2 luciferase ratio came to 0.76. Further, the normalised LDH release in test [3] was 1.1.
The matching figures for `O=C(CCCN1CC=C(n2c(=O)[nH]c3ccccc32)CC1)c1ccc(F)cc1`: 0.109, 0.83, 0.88 and 0.893.
`CC1(C)O[C@@H]2CC3C4CCC5=CC(=O)CCC5(C)C4(F)C(O)CC3(C)[C@]2(C(=O)CCl)O1` (some centres undefined) yielded a signal change (36 h minus 0 h) in test [1] of 0.163. In test [2], the SMN1 luciferase ratio was 0.83 and the SMN2 luciferase ratio came out at 0.82. In addition, in test [3], the normalised LDH release amounted to 0.607.
`N=C(N)c1ccc(OCCCCCOc2ccc(C(=N)N)cc2)cc1`: in test [1], the signal change (36 h minus 0 h) was 0.0448. In test [2], the SMN1 luciferase ratio worked out at 0.39 and the SMN2 luciferase ratio was 0.49. The same compound yielded a normalised LDH release in test [3] of 0.148.
The matching figures for `C[C@H]1O[C@@H](O[C@H]2[C@@H](O)C[C@H](O[C@H]3[C@@H](O)C[C@H](O[C@H]4CC[C@]5(C)C6C[C@@H](O)[C@]7(C)[C@@H](C8=CC(=O)OC8)CC[C@]7(O)C6CC[C@@H]5C4)O[C@@H]3C)O[C@@H]2C)C[C@H](O)[C@@H]1O` (some centres undefined): 0.258, 0.05, 0.09 and 0.686.
With `Nc1ccc(C(=O)NCC(=O)O)cc1`, the signal change (36 h minus 0 h) in test [1] was 0.257. Moreover, in test [2], the SMN1 luciferase ratio was 0.92 and the SMN2 luciferase ratio is 0.99. In test [3], this compound yielded a normalised LDH release of 0.798.
`NC(N)=NCCN1CCCCCCC1` had a signal change (36 h minus 0 h) in test [1] of 0.112. Further, in test [2], the SMN1 luciferase ratio came out at 0.88 and the SMN2 luciferase ratio came to 1.1. Moreover, the normalised LDH release in test [3] worked out at 0.695.
